In article PMC8317927 (Journal of Enzyme Inhibition and Medicinal Chemistry, 2021):

Test system: HAase protein
Assay: Circular dichroism measurement of HAase secondary structure
Design: species or system bovine
Settings: far-UV CD, HAase 0.2 mg/mL, samples at 10 and 20 μg/mL; for α-helix content of HAase protein after co-incubation: HAase alone 35.4%; for random coil content of HAase protein after co-incubation: HAase alone 39.3%

Structure (SMILES) | α-helix content of HAase protein after co-incubation [%] | random coil content of HAase protein after co-incubation [%]
CC1(C)CCC2(C(=O)O)CCC3(C)C(=CCC4C5(C)Cc6c([nH]c7c(F)cc(F)cc67)C(C)(C)C5CCC43C)C2C1 (stereo not shown) [Compound 6c] | 26.1 | 42.5
CC1(C)CCC2(C(=O)O)CCC3(C)C(=CCC4C5(C)Cc6c([nH]c7c(Cl)cccc67)C(C)(C)C5CCC43C)C2C1 (stereo not shown) [Compound 6g] | 29.8 | 44.7
